Results: PubChem BioAssay AID652054 (National Center for Advancing Translational Sciences (NCATS), 2013)
About 9,100 (2.5%) of roughly 360,000 compounds were called active. Inconclusive results, whose numbers are uncertain, are shown with a selection of clear calls. Rule as the data show it: active = max response below about -50%; inconclusive = no clear call, values can overlap the other calls; inactive = above that.

Amino acid sequences for entries named in this document (tags omitted).
UniProt P35462, whole entry, looked up: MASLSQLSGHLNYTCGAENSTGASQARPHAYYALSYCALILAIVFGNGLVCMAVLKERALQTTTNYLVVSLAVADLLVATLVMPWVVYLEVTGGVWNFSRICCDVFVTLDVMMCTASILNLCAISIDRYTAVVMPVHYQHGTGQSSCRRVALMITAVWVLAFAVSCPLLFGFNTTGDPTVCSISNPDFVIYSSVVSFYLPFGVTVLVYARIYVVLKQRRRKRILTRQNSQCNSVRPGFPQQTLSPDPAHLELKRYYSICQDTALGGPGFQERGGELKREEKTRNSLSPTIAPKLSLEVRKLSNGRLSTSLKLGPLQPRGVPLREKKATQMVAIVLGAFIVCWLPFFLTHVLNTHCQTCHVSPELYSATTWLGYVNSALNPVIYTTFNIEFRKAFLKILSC

molecular target: D(3) dopamine receptor (Homo sapiens) (UniProt P35462); assay: qHTS of D3 Dopamine Receptor Antagonist: qHTS; conditions: D3R cells, DiscoveRx beta-arrestin luminescence, antagonist mode; stronger effect = lower value
Summary of the method: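 Cells expressing the human receptor were seeded at 1500 cells/well, incubated overnight at 37 degrees C in 5% CO2, then exposed to library compounds with dopamine controls for 90 minutes at 37 degrees C before luminescent detection.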
% is scaled to controls: 0 for no effect and ±100 for the full control effect.

Max response, negative = inhibition, inconclusive:
CCSc1nnc(NC(=O)[C@@H](NC(=O)c2ccc(C(C)(C)C)cc2)C(C)C)s1 -30.7%
O=S1(=O)N=C(Oc2ccccc2)c2ccccc21 -32.9%
CC(C)c1ccc(OCCCN2CCCC2)cc1 -32.5%
COc1ccc(S(=O)(=O)Nc2cc3c4c(oc3c3ccccc23)CCCC4=O)cc1 -48.1%
CCCCNCc1cc(Cl)c(OCCC)c(OCC)c1 -40.7%
Cc1ccc(OCCCN2CCOCC2)c([N+](=O)[O-])c1 -46.4%
CCN(CC)C(=O)[C@H]1C[C@H](CC(=O)NCCCn2ccnc2)C(=O)N2CCc3c([nH]c4cc(CCC(=O)N(C)C)ccc34)[C@]12C -39.2%
CCN1CCN(C(=O)c2ccc(Sc3ccccc3Cl)c([N+](=O)[O-])c2)CC1 -30.4%
COc1cccc2c1OC1(C)CC2N(C(=O)c2ccco2)C(=S)N1c1ccc(F)cc1 (centres undefined) -49.4%
CCOc1cccc(/C(O)=C2/C(=O)C(=O)N(Cc3ccco3)C2c2ccncc2)c1 (centres undefined) -37.5%
O=C(Oc1c(Cl)cc(Cl)c2cccnc12)c1cccs1 -33.1%
Cc1ccc(C)c(OC(=O)CN2C(=O)c3ccccc3C2=O)c1 -32.4%
CN(Cc1ccc(Cl)s1)C(=O)CCl -46.3%

2 consecutive entries from above:
Max response, negative = inhibition, inconclusive:
CC(C)c1ccc(OCCCN2CCCC2)cc1 -32.5%
COc1ccc(S(=O)(=O)Nc2cc3c4c(oc3c3ccccc23)CCCC4=O)cc1 -48.1%

Next part:

Max response, negative = inhibition, inactive:
O=C(COc1ccc(Cl)cc1)N(Cc1ccccc1)c1nc(-c2ccccc2)cs1 -23.1%
CCN1C(=O)[C@@H]2[C@@H](c3ccc(-c4ccc(OC)cc4)c(OC)c3)N3CCCC[C@@]3(C(=O)OC)[C@@H]2C1=O -25.3%
Cc1nc(N2CCN(c3ccccn3)CC2)c2c(C)c(C(=O)N3CCN(c4ccccc4F)CC3)sc2n1 57.7%
NC(COCc1ccccc1)c1csc(NC(=O)Nc2cccc(C(F)(F)F)c2)n1 (centres undefined) -4.75%
COc1ccccc1NC(=O)CSc1nnc(-c2ccc(C)cc2)o1 -22.5%
COc1cccc(N2C(=O)/C(=C\c3cccs3)NC2=S)c1 -5.53%

Max response, negative = inhibition, active:
NC1(C(=O)O)CC1 -75.3%
COc1ccc(OC)c(C2C(C(=O)c3sc(C)nc3C)=C(O)C(=O)N2CCN2CCOCC2)c1 (centres undefined) -56.4%
Cc1ccc(S(=O)(=O)C=CS(=O)(=O)c2ccc(C)cc2)cc1 -99.4%
O=C(N/N=C/c1ccc(Br)s1)c1c[nH]c2ccccc12 -54.7%
CC1CC(C)(C)Nc2ccc(N=O)cc21 (centres undefined) -84.1%
